According to PubChem BioAssay AID1347131 (National Center for Advancing Translational Sciences (NCATS), 2019):
Among all 410,000 compounds or so, about 2,000 (0.49%) were called active. Listed are the inconclusive results; actives and inactives stand elsewhere. The call rests on the fitted dose curve; tested in HEK293 reporter line.

assay: qHTS Assay for Foot and Mouth Disease Virus Antivirals: Primary Screen against the MLPCN compound library; details: FMDV antiviral cell-based qHTS; further: nearly all actives have a fitted effect of over 55% in size
Potency means the concentration at half of the fitted maximal effect.

Structure (SMILES) | Potency
Cc1cc(-c2cccc3ccccc23)c(C)cn1.O=[N+]([O-])c1cc([N+](=O)[O-])c(O)c([N+](=O)[O-])c1 | inconclusive: 8.91 µM
